The supplement of paper PMC10849652
This is one part of the list.

Amino acid sequences for entries named in this document (tags omitted). A change or cut given only in a name is not applied to a line headed by its entry.
UniProt Q8N4A0: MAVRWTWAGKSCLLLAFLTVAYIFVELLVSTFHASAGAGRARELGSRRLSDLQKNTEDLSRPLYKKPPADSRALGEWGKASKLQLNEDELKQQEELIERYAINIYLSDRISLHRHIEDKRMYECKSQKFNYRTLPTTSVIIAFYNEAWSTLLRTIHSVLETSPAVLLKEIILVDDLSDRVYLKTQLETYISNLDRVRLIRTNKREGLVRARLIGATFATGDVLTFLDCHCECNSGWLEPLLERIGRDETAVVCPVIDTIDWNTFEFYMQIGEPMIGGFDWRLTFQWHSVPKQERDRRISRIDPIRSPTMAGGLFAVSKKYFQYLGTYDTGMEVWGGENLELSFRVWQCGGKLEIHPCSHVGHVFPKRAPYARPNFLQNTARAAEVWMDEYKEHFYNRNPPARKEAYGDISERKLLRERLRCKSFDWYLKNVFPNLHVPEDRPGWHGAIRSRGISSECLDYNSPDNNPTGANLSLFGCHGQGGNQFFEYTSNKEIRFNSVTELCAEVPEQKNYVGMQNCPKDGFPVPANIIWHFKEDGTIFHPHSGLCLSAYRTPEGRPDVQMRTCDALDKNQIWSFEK
UniProt P22102: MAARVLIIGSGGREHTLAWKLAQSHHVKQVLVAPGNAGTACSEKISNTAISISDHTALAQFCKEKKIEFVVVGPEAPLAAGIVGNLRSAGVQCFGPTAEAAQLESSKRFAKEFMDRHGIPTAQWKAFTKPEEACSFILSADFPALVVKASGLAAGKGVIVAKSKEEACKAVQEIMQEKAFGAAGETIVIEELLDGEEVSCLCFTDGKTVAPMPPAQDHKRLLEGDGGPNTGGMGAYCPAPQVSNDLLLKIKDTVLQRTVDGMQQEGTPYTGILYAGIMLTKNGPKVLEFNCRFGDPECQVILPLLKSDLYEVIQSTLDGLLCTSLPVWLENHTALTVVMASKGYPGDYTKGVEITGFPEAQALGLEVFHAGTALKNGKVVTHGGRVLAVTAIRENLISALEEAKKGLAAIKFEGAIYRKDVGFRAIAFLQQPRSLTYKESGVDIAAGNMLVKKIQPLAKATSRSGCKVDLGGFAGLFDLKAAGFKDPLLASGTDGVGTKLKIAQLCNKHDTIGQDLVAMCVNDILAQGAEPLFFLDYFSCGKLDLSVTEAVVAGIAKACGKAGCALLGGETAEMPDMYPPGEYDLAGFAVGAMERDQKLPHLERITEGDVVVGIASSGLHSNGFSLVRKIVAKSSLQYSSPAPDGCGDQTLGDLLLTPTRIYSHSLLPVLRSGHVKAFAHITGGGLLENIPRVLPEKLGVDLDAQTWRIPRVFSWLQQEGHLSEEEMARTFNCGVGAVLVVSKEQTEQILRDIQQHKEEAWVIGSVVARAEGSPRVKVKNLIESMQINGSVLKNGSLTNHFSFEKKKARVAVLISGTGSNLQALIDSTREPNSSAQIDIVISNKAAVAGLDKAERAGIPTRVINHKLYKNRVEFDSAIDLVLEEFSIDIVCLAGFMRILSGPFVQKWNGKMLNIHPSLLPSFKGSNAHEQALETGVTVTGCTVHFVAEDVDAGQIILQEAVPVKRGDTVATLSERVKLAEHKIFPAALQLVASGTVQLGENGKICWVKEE
UniProt Q9UJ14: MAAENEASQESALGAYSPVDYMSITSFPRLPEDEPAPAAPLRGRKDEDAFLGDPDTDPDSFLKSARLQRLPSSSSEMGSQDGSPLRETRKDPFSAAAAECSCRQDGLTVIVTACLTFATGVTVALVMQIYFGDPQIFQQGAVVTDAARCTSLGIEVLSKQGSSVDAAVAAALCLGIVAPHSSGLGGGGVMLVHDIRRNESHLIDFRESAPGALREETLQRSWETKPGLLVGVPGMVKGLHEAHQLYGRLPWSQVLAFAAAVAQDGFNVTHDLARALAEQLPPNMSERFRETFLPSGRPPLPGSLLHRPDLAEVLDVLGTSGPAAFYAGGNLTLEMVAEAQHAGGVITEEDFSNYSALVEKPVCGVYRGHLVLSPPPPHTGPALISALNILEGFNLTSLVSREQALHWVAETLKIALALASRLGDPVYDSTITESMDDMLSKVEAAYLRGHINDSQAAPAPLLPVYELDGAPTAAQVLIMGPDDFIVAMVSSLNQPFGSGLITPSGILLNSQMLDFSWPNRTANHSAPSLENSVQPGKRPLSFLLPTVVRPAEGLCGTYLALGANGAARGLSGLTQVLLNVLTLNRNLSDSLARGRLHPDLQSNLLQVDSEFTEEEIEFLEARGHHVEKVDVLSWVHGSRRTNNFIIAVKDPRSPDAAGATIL
UniProt Q14C86: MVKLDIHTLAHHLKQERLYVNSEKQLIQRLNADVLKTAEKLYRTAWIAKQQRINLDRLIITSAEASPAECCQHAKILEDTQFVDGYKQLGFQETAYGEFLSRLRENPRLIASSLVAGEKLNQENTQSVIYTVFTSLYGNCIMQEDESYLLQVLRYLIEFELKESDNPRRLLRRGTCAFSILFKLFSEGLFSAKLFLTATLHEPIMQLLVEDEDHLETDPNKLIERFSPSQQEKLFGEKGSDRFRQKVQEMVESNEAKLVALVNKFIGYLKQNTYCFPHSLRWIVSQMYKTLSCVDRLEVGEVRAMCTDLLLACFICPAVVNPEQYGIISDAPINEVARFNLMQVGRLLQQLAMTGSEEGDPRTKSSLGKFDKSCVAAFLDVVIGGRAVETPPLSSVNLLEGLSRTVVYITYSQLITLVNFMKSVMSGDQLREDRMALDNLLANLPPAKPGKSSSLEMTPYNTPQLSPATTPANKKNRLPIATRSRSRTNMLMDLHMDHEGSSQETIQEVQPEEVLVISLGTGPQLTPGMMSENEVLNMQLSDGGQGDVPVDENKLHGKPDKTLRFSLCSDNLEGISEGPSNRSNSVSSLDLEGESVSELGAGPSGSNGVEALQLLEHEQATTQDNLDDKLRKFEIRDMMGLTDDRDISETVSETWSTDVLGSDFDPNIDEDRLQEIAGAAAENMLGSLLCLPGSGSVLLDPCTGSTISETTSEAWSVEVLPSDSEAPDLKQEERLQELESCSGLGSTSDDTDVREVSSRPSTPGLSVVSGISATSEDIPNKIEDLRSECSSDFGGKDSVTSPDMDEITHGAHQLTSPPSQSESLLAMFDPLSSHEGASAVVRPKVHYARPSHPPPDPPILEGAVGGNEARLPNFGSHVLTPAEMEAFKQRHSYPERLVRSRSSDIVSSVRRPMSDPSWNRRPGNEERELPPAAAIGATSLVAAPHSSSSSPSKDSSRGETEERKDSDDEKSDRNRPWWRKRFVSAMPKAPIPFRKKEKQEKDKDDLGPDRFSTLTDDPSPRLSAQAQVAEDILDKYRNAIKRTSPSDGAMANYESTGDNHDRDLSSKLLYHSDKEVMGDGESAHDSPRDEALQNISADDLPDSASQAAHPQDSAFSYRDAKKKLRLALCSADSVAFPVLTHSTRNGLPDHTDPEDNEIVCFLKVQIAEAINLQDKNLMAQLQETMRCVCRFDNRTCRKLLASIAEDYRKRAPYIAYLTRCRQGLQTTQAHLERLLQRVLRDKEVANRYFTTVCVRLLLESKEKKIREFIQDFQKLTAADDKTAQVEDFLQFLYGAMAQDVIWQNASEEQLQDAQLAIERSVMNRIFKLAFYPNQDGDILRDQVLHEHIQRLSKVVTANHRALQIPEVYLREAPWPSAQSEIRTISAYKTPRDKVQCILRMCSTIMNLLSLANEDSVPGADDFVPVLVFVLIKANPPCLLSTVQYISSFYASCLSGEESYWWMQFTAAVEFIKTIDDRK
UniProt Q06546: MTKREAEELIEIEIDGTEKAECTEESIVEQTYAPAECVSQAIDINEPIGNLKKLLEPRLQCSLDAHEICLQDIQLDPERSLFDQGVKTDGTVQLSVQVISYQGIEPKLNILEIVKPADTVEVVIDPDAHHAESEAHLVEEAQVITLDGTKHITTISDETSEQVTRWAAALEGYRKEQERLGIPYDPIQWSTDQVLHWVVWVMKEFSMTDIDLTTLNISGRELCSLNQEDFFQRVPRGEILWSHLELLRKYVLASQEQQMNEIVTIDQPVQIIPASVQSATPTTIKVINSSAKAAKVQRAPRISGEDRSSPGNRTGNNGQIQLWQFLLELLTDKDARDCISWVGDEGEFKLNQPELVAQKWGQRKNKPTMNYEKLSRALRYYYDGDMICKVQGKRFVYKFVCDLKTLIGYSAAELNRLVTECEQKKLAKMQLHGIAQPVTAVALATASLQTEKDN
UniProt Q9H0R8, whole entry, looked up: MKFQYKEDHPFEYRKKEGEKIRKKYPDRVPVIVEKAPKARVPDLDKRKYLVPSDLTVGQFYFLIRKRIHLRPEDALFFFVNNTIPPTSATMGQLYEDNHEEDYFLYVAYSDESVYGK
UniProt Q8IXK2: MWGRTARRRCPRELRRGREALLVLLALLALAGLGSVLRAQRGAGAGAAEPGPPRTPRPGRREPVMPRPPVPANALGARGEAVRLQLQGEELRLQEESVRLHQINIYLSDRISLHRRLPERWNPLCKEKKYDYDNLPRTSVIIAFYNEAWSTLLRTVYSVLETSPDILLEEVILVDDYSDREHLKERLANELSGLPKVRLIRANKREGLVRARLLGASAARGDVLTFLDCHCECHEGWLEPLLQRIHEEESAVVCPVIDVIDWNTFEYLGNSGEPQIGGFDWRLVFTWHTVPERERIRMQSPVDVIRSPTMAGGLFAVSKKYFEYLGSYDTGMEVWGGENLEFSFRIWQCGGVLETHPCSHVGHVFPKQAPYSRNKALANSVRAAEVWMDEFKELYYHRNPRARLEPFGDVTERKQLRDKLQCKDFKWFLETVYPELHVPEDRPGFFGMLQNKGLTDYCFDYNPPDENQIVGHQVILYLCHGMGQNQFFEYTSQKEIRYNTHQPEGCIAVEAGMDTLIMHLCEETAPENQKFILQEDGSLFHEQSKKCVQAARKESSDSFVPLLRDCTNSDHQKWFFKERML
UniProt P02794, whole entry, looked up: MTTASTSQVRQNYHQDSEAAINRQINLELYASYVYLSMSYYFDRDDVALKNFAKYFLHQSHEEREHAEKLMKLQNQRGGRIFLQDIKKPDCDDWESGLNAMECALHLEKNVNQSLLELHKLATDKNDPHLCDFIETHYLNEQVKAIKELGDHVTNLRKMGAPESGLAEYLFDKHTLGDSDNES
UniProt P57678: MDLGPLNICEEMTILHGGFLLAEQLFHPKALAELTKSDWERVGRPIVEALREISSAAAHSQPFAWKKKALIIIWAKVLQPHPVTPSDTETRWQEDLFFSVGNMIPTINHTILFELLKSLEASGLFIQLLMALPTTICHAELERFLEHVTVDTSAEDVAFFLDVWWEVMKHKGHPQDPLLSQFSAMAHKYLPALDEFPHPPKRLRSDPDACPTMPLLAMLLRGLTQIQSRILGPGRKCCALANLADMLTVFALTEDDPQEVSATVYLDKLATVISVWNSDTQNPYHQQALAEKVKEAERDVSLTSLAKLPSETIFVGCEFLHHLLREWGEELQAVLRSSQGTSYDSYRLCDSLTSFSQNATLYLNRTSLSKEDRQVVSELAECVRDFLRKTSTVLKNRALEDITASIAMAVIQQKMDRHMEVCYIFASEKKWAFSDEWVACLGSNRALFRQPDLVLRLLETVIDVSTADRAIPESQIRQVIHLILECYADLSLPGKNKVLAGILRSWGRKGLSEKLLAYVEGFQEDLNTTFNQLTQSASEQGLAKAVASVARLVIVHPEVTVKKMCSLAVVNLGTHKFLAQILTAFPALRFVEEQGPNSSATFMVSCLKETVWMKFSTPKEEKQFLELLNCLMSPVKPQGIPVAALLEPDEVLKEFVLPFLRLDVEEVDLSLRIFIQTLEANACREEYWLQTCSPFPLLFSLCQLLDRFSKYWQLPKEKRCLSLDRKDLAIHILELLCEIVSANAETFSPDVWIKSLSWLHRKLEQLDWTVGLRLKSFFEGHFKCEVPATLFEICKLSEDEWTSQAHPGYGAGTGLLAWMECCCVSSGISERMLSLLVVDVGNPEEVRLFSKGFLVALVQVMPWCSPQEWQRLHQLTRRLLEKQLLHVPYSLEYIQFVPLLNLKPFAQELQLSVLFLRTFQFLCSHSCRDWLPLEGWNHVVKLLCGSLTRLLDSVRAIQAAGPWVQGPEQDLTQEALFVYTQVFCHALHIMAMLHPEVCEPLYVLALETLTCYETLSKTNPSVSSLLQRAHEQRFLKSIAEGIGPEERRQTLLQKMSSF

What was measured:
Assay in all cases: log2 fold change, soluble protein after heating vs DMSO (PISA); higher = thermal stabilisation; K562 cells, 10 uM, 30 min; active = over 0.2 and 3.5 SD of the protein, either way, in both replicates (recomputed)
[1] = compound: CC1=C(C=C(C=C1)NC(=O)C2=CC(=CC=C2)C(C)(C)C#N)NC3=CC4=C(C=C3)N=CN(C4=O)C
How it was run: (§1)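 Thermal stability values are relative to control samples and come from duplicates. They are expressed as log2 fold changes. For measurement, K562 cells (2×10^6 cells/mL) received 10 μM compound for 30 min, and aliquots were heated for 3 min over 48°C-58°C, pooled, and extracted at 4°C in PBS with 0.5% NP-40. Soluble protein, the supernatant after 21,000xg for 90 min, was quantified by TMTpro 16plex LC-MS/MS with equalised channel sums.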

[2] = compound: CC1=C(C=C(C=C1)NC(=O)C2=CC(=CC=C2)N(C)C)NC(=O)C3=CC=C(C=C3)O
How it was run: as §1

[3] = compound: CC1=CC=C(C=C1)SC2=C3C=C(SC3=CN=C2)C(=O)N
How it was run: as §1

[4] = compound: CC1=NC(=CC=C1)C2=C(N=C(N2)C(C)(C)C)C3=CC4=NC=CN=C4C=C3
How it was run: as §1

Nexturastat A = compound: CCCCN(Cc1ccc(C(=O)NO)cc1)C(=O)Nc1ccccc1 [Nexturastat A]
How it was run: as §1

vemurafenib = compound: CCCS(=O)(=O)Nc1ccc(F)c(C(=O)c2c[nH]c3ncc(-c4ccc(Cl)cc4)cc23)c1F [vemurafenib]
How it was run: as §1

[5] = compound: CCCS(=O)(=O)Nc1ccc(F)c(C(=O)c2c[nH]c3ncc(Cl)cc23)c1F
How it was run: as §1

[6] = compound: CCCc1cc(C)[nH]c(=O)c1CNC(=O)c1cc(-c2ccnc(N3CCN(C)CC3)c2)cc2c1cnn2C(C)C
How it was run: as §1

givinostat = compound: CCN(CC)Cc1ccc2cc(COC(=O)Nc3ccc(C(=O)NO)cc3)ccc2c1 [givinostat]
How it was run: as §1

barasertib = compound: CCN(CCCOc1ccc2c(Nc3cc(CC(=O)Nc4cccc(F)c4)[nH]n3)ncnc2c1)CCOP(=O)(O)O [barasertib]
How it was run: as §1

Measured: log2 fold change

GHDC (UniProt Q8N2G8)
inactive: [1] -0.028 | [2] 0.057 | [3] -0.03 | [4] -0.021 | Nexturastat A -0.113 | vemurafenib -0.041 | [5] -0.044 | [6] -0.011 | givinostat -0.025 | barasertib -0.008

FUBP1 isoform 2 (UniProt Q96AE4)
inactive: [1] -0.022 | [2] 0.005 | [3] -0.001 | [4] 0.017 | Nexturastat A -0.086 | vemurafenib -0.021 | [5] -0.043 | [6] -0.021 | givinostat -0.02 | barasertib -0.006

GCC2 (UniProt Q8IWJ2)
inactive: [1] -0.004 | [2] -0.012 | [3] -0.016 | [4] -0.031 | vemurafenib 0.025 | [5] 0.01 | [6] 0.073 | givinostat 0.05 | barasertib -0.037
active: Nexturastat A 0.322

GALNT4 (UniProt Q8N4A0)
inactive: [1] 0.008 | [2] 0.017 | [3] -0.029 | [4] 0.013 | Nexturastat A -0.049 | vemurafenib -0.037 | [5] -0.001 | [6] -0.01 | givinostat 0.005 | barasertib 0.011

FUNDC2 (UniProt Q9BWH2)
inactive: [1] -0.023 | [2] 0.031 | [3] -0.056 | [4] -0.013 | Nexturastat A -0.067 | vemurafenib -0.014 | [5] -0.131 | [6] -0.072 | givinostat 0.01 | barasertib 0.004

GART (UniProt C9JZG2)
inactive: [1] 0.121 | [2] 0.075 | [3] 0.048 | [4] 0.032 | Nexturastat A -0.047 | vemurafenib -0.021 | [5] 0.006 | [6] -0.216 | givinostat 0.008 | barasertib -0.084

GART (UniProt P22102)
inactive: [1] 0.07 | [2] -0.028 | [3] 0.017 | [4] 0.009 | Nexturastat A -0.036 | vemurafenib 0.049 | [5] 0.041 | [6] 0.082 | givinostat 0.011 | barasertib 0.042

GAGE5 (UniProt Q13069)
inactive: [1] -0.067 | [2] -0.031 | [3] 0 | [4] 0.009 | Nexturastat A -0.031 | vemurafenib 0.052 | [5] -0.067 | [6] -0.061 | givinostat -0.033 | barasertib 0.037

GGT7 (UniProt Q9UJ14)
inactive: [1] -0.125 | [2] 0 | [3] 0.07 | [4] -0.008 | Nexturastat A 0.032 | vemurafenib 0.112 | [5] -0.011 | [6] 0.033 | givinostat 0.019 | barasertib 0.061

FNTB (UniProt P49356)
inactive: [1] 0.032 | [2] -0.058 | [3] 0 | [4] 0 | Nexturastat A -0.041 | vemurafenib 0.011 | [5] -0.052 | [6] 0.029 | givinostat -0.083 | barasertib -0.034

GALNT2 (UniProt Q10471)
inactive: [1] -0.003 | [2] -0.035 | [3] 0.016 | [4] 0.038 | Nexturastat A -0.032 | vemurafenib 0 | [5] 0.04 | [6] 0.03 | givinostat -0.005 | barasertib 0.011

GARS1 (UniProt P41250)
inactive: [1] -0.002 | [2] -0.008 | [3] -0.01 | [4] 0.003 | Nexturastat A -0.049 | vemurafenib -0.021 | [5] -0.017 | [6] 0.011 | givinostat -0.022 | barasertib -0.005

GAB1 isoform 2 (UniProt Q13480)
inactive: [1] 0.049 | [2] -0.063 | [3] 0.037 | [4] -0.061 | Nexturastat A -0.051 | vemurafenib -0.151 | [5] -0.007 | [6] 0.011 | givinostat 0.052 | barasertib 0.067

GAPVD1 isoform 6 (UniProt Q14C86)
inactive: [1] 0.004 | [2] -0.041 | [3] 0.046 | [4] 0.019 | Nexturastat A 0.025 | vemurafenib 0.007 | [5] 0.13 | [6] 0.047 | givinostat 0.047 | barasertib 0.034

GABPA (UniProt Q06546)
inactive: [1] -0.007 | [2] -0.011 | [3] 0.064 | [4] 0.039 | Nexturastat A 0.008 | vemurafenib 0.062 | [5] 0.09 | [6] -0.004 | givinostat 0.17 | barasertib 0.022

Fetched one by one from above, two records:
GABPA (UniProt Q06546)
inactive: [1] -0.007 | [2] -0.011 | [3] 0.064 | [4] 0.039 | Nexturastat A 0.008 | vemurafenib 0.062 | [5] 0.09 | [6] -0.004 | givinostat 0.17 | barasertib 0.022

GALNT2 (UniProt Q10471)
inactive: [1] -0.003 | [2] -0.035 | [3] 0.016 | [4] 0.038 | Nexturastat A -0.032 | vemurafenib 0 | [5] 0.04 | [6] 0.03 | givinostat -0.005 | barasertib 0.011

The list continues.

GABARAPL1 isoform 2 (UniProt Q9H0R8)
inactive: [1] -0.008 | [2] 0.003 | [3] 0.006 | [4] 0.002 | Nexturastat A -0.013 | vemurafenib -0.016 | [5] -0.025 | [6] -0.007 | givinostat 0.044 | barasertib 0.021

GBF1 (UniProt Q92538)
inactive: [1] -0.049 | [2] -0.071 | [3] -0.012 | [4] -0.028 | Nexturastat A 0.078 | vemurafenib 0.028 | [5] 0.059 | [6] 0.014 | givinostat 0.07 | barasertib 0.028

FYB1 isoform 3 (UniProt O15117)
inactive: [1] 0.073 | [2] 0.063 | [3] 0.093 | [4] 0.051 | Nexturastat A 0.011 | vemurafenib -0.009 | [5] 0.169 | [6] -0.03 | givinostat 0.066 | barasertib 0.052

GEMIN5 (UniProt Q8TEQ6)
inactive: [1] 0.035 | [2] -0.038 | [3] 0.009 | [4] -0.013 | Nexturastat A -0.004 | vemurafenib 0.015 | [5] 0.093 | [6] 0.018 | givinostat -0.1 | barasertib 0.019

FRRS1 (UniProt Q6ZNA5)
inactive: [1] -0.051 | [2] -0.025 | [3] 0.047 | [4] 0.013 | Nexturastat A 0.006 | vemurafenib -0.009 | [5] 0.036 | [6] -0.034 | givinostat -0.057 | barasertib 0

GBA (UniProt P04062)
inactive: [1] 0 | [2] 0.006 | [3] -0.041 | [4] 0.027 | Nexturastat A 0.061 | vemurafenib -0.033 | [5] -0.065 | [6] 0.045 | givinostat 0 | barasertib 0.015

GALNT11 (UniProt Q8NCW6)
inactive: [1] 0.011 | [2] 0.049 | [3] -0.024 | [4] -0.041 | Nexturastat A -0.032 | vemurafenib 0.009 | [5] -0.035 | [6] -0.002 | givinostat 0.027 | barasertib 0.118

G3BP2 (UniProt Q9UN86)
inactive: [1] 0.093 | [2] 0.043 | [3] -0.039 | [4] 0.034 | Nexturastat A 0.208 | vemurafenib -0.01 | [5] 0.008 | [6] 0.114 | givinostat -0.021 | barasertib -0.134

GALNT12 (UniProt Q8IXK2)
inactive: [1] 0.019 | [2] -0.039 | [3] -0.028 | [4] -0.051 | Nexturastat A 0.081 | vemurafenib 0.007 | [5] 0.009 | [6] -0.07 | givinostat -0.01 | barasertib -0.041

FTH1 (UniProt P02794)
inactive: [1] -0.086 | [2] 0.096 | [3] -0.032 | [4] 0.039 | Nexturastat A -0.091 | vemurafenib -0.037 | [5] -0.01 | [6] -0.06 | givinostat -0.201 | barasertib -0.009

GAPDH (UniProt P04406)
inactive: [1] 0.028 | [2] -0.019 | [3] 0.002 | [4] 0.043 | Nexturastat A -0.055 | vemurafenib 0.05 | [5] 0.019 | [6] -0.01 | givinostat 0.022 | barasertib 0.018

GGA3 (UniProt Q9NZ52)
inactive: [1] -0.045 | [2] 0.006 | [3] -0.007 | [4] 0.007 | Nexturastat A -0.149 | vemurafenib 0.072 | [5] 0.027 | [6] -0.001 | givinostat 0.025 | barasertib 0.035

GFPT1 (UniProt Q06210)
inactive: [1] 0.036 | [2] -0.015 | [3] 0.01 | [4] 0.021 | Nexturastat A 0.012 | vemurafenib 0.012 | [5] 0.037 | [6] 0.024 | givinostat -0.027 | barasertib -0.013

FURIN (UniProt P09958)
inactive: [1] 0.01 | [2] 0.029 | [3] -0.076 | [4] 0.034 | Nexturastat A -0.115 | vemurafenib 0.062 | [5] -0.085 | [6] 0.011 | givinostat -0.008 | barasertib -0.02

GEMIN4 (UniProt P57678)
inactive: [1] -0.003 | [2] -0.059 | [3] 0.025 | [4] -0.158 | Nexturastat A 0.283 | vemurafenib -0.139 | [5] 0.177 | [6] 0.182 | givinostat 0.203 | barasertib -0.19
